Reference: patent US20260193326A1

What was measured:
Test in all cases: SPR, AAV amine-coupled to CM5 chip
[1] = molecular target: AAV5 (adeno-associated virus serotype 5 (AAV5))
[2] = molecular target: AAV8 (adeno-associated virus serotype 8 (AAV8))
[3] = molecular target: AAV9 (adeno-associated virus serotype 9 (AAV9))

Measured: binding

B1: A4-D6 (bispecific antibody)
chain: VQLQESGGGLVQTGGSLRLSCAASGRAFSLNTMGWYRQAPGKWRELVATVTRGGSTNYAGSVKGRFTISRDNAKNTVYLQMNNLRPEDTAVYYCHVDEVRESSWTTSNLWGQGTQVTVSSGGGGSGGGGSGGGGSVQLQESGGGLVQTGGSLRLSCAASGRAFSLNTMGWYRQAPGKWRELVATVTRGGSTNYAGSVKGRFTISRDNAKNTVYLQMNNLRPEDTAVYYCHVDEVRESSWTTSNLWGQGTQVTVSSGGGGSGGGGSGGGGSVQLQESGGGLVQPGGSLRLSCAASGSIFTINSMGWYRQAPGKWRELVATVTRGGNTNYANSVKGRFTISRDNAKNTVYLQMNTLRPEDTAVYYCHLDEVRDSSWTTSNLWGQGTQVTVSSGGGGSGGGGSGGGGSVQLQESGGGLVQPGGSLRLSCAASGSIFSINSMGWYRQAPGKWRELVATVTRGGSTNYANSVKGRFTISRDNAKNTVYLQMNTLRPEDTAVYYCHLDEVRDSSWTTSNLWGQGTQVTVSS
binds: all assays above

B2: A4-D7 (bispecific antibody)
chain: VQLQESGGGLVQTGGSLRLSCAASGRAFSLNTMGWYRQAPGKWRELVATVTRGGSTNYAGSVKGRFTISRDNAKNTVYLQMNNLRPEDTAVYYCHVDEVRESSWTTSNLWGQGTQVTVSSGGGGSGGGGSGGGGSVQLQESGGGLVQPGGSLRLSCAASGSIFTINSMGWYRQAPGKWRELVATVTRGGNTNYANSVKGRFTISRDNAKNTVYLQMNTLRPEDTAVYYCHLDEVRDSSWTTSNLWGQGTQVTVSSGGGGSGGGGSGGGGSVQLQESGGGLVQPGGSLRLSCAASGSIFSINSMGWYRQAPGKWRELVATVTRGGSTNYANSVKGRFTISRDNAKNTVYLQMNTLRPEDTAVYYCHLDEVRDSSWTTSNLWGQGTQVTVSSGGGGSGGGGSGGGGSVQLQESGGGLVQTGGSLRLSCAASGRAFSLNTMGWYRQAPGKWRELVATVTRGGSTNYAGSVKGRFTISRDNAKNTVYLQMNNLRPEDTAVYYCHVDEVRESSWTTSNLWGQGTQVTVSS
binds: all assays above

B3: A4-D8 (bispecific antibody)
chain: VQLQESGGGLVQPGGSLRLSCAASGSRFSLNTMGWYRQAPGKQRELVATVTRGGSTNYADSVKGRFTISRDNAKNTVYLQMNSLRPEDTAVYYCHVDELRESGWTTSNLWGQGTQVTVSSGGGGSGGGGSGGGGSVQLQESGGGLVQPGGSLRLSCAASGSRFSLNTMGWYRQAPGKQRELVATVTRGGSTNYADFVKGRFTISRDNAKNTVYLQMNSLRPEDTAVYYCHVDELRESGWTTSNLWGQGTQVTVSSGGGGSGGGGSGGGGSVQLQESGGGLVHSGGSLRLSCAASGSMFSLNTMGWYRQAPGKQRELVATITRGGGTSYADSVKGRFTISRDNAKNTVYLQMNSLRPEDTAVYYCHVDELRQSSWTTSNLWGQGTQVTVSSGGGGSGGGGSGGGGSVQLQESGGGLVQPGGSLRLSCAASGSRFSLNTMGWYRQAPGKQRELVATVTRGGSTNYADFVKGRFTISRDNAKNTVYLQMNSLRPEDTAVYYCHVDELRESGWTTSNLWGQGTQVTVSS
binds: all assays above

B4: A4-D9 (bispecific antibody)
chain: VQLQESGGGLVHSGGSLRLSCAASGSMFSLNTMGWYRQAPGKQRELVATITRGGGTSYADSVKGRFTISRDNAKNTVYLQMNSLRPEDTAVYYCHVDELRQSSWTTSNLWGQGTQVTVSSGGGGSGGGGSGGGGSVQLQESGGGLVQPGGSLRLSCAASGSRFSLNTMGWYRQAPGKQRELVATVTRGGSTNYADFVKGRFTISRDNAKNTVYLQMNSLRPEDTAVYYCHVDELRESGWTTSNLWGQGTQVTVSSGGGGSGGGGSGGGGSVQLQESGGGLVQPGGSLRLSCAASGSRFSLNTMGWYRQAPGKQRELVATVTRGGSTNYADFVKGRFTISRDNAKNTVYLQMNSLRPEDTAVYYCHVDELRESGWTTSNLWGQGTQVTVSSGGGGSGGGGSGGGGSVQLQESGGGLVQTGGSLRLSCAASGRAFSLNTMGWYRQAPGKWRELVATVTRGGSTNYAGSVKGRFTISRDNAKNTVYLQMNNLRPEDTAVYYCHVDEVRESSWTTSNLWGQGTQVTVSS
binds: all assays above

B5: A4-D10 (protein)
chain: VQLQESGGGLAQAGGSLRLSCAASGRGFSINTMGWYRQAPGKQRELVAAVTRGGTTNYADSVKGRFTISRDNAKNTVYLQMNSLRPEDTAVYYCHVDEVRQSSWTTSNLWGQGTQVTVSSGGGGSGGGGSGGGGSVQLQESGGGLVQPGGSLRLSCAASGRAFSINTMGWYRQAPGKQRELVATVTRDGSTNYAGSVKGRFTISRDNAKNTVYLQMNSLRPEDTAVYYCHVDEVRQSSWTTSNLWGQGTQVTVSSGGGGSGGGGSGGGGSVQLQESGGGLVQPGGSLRLSCAASGSIFIINTMGWYRRAPGKQRELVAAVTRGGSTNYADSVKGRFTISRDNAKNTVYLQMNSLRPEDTAVYYCHVDEVRQSSWTTSNLWGQGTQVTVSSGGGGSGGGGSGGGGSVQLQESGGGLVQPGGSLRLSCAASGSIFSINTMGWYRQAPGKQRELVAAVTRGGSTNYADSVKGRFTISRDNAKNTVYLQMNSLRPEDTAVYYCHVDEVRQSSWTTSNLWGQGTQVTVSS
binds: all assays above

B6: A4-D11 (protein)
chain: VQLQESGGGLVQPGGSLRLSCAASGRGFSINTMGWYRQAPGKQRELVAAVTRGGTTNYADSVKGRFTISRDNAKNTVYLQMNSLRPEDTAVYYCHVDEVRQSSWTTSNLWGQGTQVTVSSGGGGSGGGGSGGGGSVQLQESGGGLVQPGGSLRLSCAASGSIFSINTMGWYRQAPGKQRELVAAVTRGGSTNYADSVKGRFTISRDNAKNTVYLQMNSLRPEDTAVYYCHVDEVRQSSWTTSNLWGQGTQVTVSSGGGGSGGGGSGGGGSVQLQESGGGLVQPGGSLRLSCAASGSIFIINTMGWYRRAPGKQRELVAAVTRGGSTNYADSVKGRFTISRDNAKNTVYLQMNSLRPEDTAVYYCHVDEVRQSSWTTSNLWGQGTQVTVSSGGGGSGGGGSGGGGSVQLQESGGGLVQPGGSLRLSCAASGSSFVINTMGWYRQAPGKQRELVAAVTRGGSTNYADSVKGRFTISRDNAKNTVYLQMNSLRPEDTAVYYCHVDEVRQSSWTTSNLWGQGTQVTVSS
binds: all assays above

B7: A4-D12 (protein)
chain: VQLQESGGGLVQPGGSLRLSCAASGSIFSINTMGWYRQAPGKQRELVAAVTRGGSTNYADSVKGRFTISRDNAKNTVYLQMNSLRPEDTAVYYCHVDEVRQSSWTTSNLWGQGTQVTVSSGGGGSGGGGSGGGGSVQLQESGGGLAQAGGSLRLSCAASGRGFSINTMGWYRQAPGKQRELVAAVTRGGTTNYADSVKGRFTISRDNAKNTVYLQMNSLRPEDTAVYYCHVDEVRQSSWTTSNLWGQGTQVTVSSGGGGSGGGGSGGGGSVQLQESGGGLVQPGGSLRLSCAASGRAFSINTMGWYRQAPGKQRELVATVTRDGSTNYAGSVKGRFTISRDNAKNTVYLQMNSLRPEDTAVYYCHVDEVRQSSWTTSNLWGQGTQVTVSSGGGGSGGGGSGGGGSVQLQESGGGLVQPGGSLRLSCAASGSIFIINTMGWYRRAPGKQRELVAAVTRGGSTNYADSVKGRFTISRDNAKNTVYLQMNSLRPEDTAVYYCHVDEVRQSSWTTSNLWGQGTQVTVSS
binds: all assays above

B8: A4-D13 (protein)
chain: VQLQESGGGLVQPGGSLRLSCAASGSIFIINTMGWYRRAPGKQRELVAAVTRGGSTNYADSVKGRFTISRDNAKNTVYLQMNSLRPEDTAVYYCHVDEVRQSSWTTSNLWGQGTQVTVSSGGGGSGGGGSGGGGSVQLQESGGGLVQPGGSLRLSCAASGSIFSINTMGWYRQAPGKQRELVAAVTRGGSTNYADSVKGRFTISRDNAKNTVYLQMNSLRPEDTAVYYCHVDEVRQSSWTTSNLWGQGTQVTVSSGGGGSGGGGSGGGGSVQLQESGGGLAQAGGSLRLSCAASGRGFSINTMGWYRQAPGKQRELVAAVTRGGTTNYADSVKGRFTISRDNAKNTVYLQMNSLRPEDTAVYYCHVDEVRQSSWTTSNLWGQGTQVTVSSGGGGSGGGGSGGGGSVQLQESGGGLVQPGGSLRLSCAASGRAFSINTMGWYRQAPGKQRELVATVTRDGSTNYAGSVKGRFTISRDNAKNTVYLQMNSLRPEDTAVYYCHVDEVRQSSWTTSNLWGQGTQVTVSS
binds: all assays above

B9: A4-T1 (VHH)
VHH: VQLQESGGGLVQPGGSLRLSCAASGSIFSINLMGWYRQAPGKQRELVATITRGGNTNYAGSVKGRFTISRDNAKNTVYLQMNSLRPEDTAVYYCHVDEVRQSSWTTSNLWGQGTQVTVSS
binds: all assays above

B10: A4-T2 (VHH)
VHH: VQLQESGGGLVQPGGSLRLSCAASGSIFSINLMGWYRQAPGKQRELVATITRGGNTNYAGSVKGRFTISRDNAKNTVYLQMNSLRPEDTAVYYCHVDEVRQSSWTTSNLWGQGTQVTVSS
binds: all assays above

B11: A4-L1 (VHH)
VHH: VQLQESGGGLVQPGGSLRLSCAASGSIFSINLMGWYRQAPGKQRELVATITRGGNTNYAGSVKGRFTISRDNAKNTVYLQMNSLRPEDTAVYYCHVDEVRQSSWTTSNLWGQGTQVTVSS
binds: all assays above

B12: A4-M1 (VHH)
VHH: QVQLQESGGGLVQPGGSLRLSCAASGSIFSINLMGWYRQAPGKQRELVATITRGGNTNYAGSVKGRFTISRDNAKNTVYLQMNSLRPEDTAVYYCHVDEVRQSSWTTSNLWGQGTQVTVSS
binds: all assays above

B13: A4-M2 (VHH)
VHH: QVQLQESGGGLVQPGGSLRLSCAASGSIFSINLMGWYRQAPGKQRELVATITRGGNTNYAGSVKGRFTISRDNAKNTVYLQMNSLRPEDTAVYYCHVDEVRQSSWTTSNLWGQGTQVTVSS
binds: all assays above

B14: A4-B1 (VHH)
chain: VQLQESGGGLVQPGGSLRLSCAASGSIFSINLMGWYRQAPGKQRELVATITRGGNTNYAGSVKGRFTISRDNAKNTVYLQMNSLRPEDTAVYYCHVDEVRQSSWTTSNLWGQGTQVTVSSGGGGSGGGGSGGGGSVQLQESGGGLVQPGGSLRLSCAASGSIFSINLMGWYRQAPGKQRELVATITRGGNTNYAGSVKGRFTISRDNAKNTVYLQMNSLRPEDTAVYYCHVDEVRQSSWTTSNLWGQGTQVTVSS
binds: all assays above

Results are given in words; binding and its absence hold for the method and conditions named. A result given as binding can be weak or reduced; the word gives no strength.
